Measured values from patent US9150899B2 (2cureX, priority 2004, dated 2015).

Columns and labels:
[1] = general procedure: Fmoc solid-phase peptide synthesis; PEGA resin with HMBA linker (HMBA modified PEGA 800 beads); TBTU/NEM; MSNT/MeIm for first residue; conditions: whole synthesis, scale of the general procedure 200 mg resin
[2] = general procedure: Fmoc solid-phase peptide synthesis; HMBA modified PEGA 800; TBTU/NEM; MSNT/MeIm for first residue; conditions: whole synthesis, scale 200 mg of HMBA modified PEGA 800 beads

Substance | final HPLC purity [1] [%] | isolated mass [2] [mg]
H-Ala-Glu-(1-amino-cyclopentanecarboxyl)-Phe-OH | >98 | 22
H-Ala-Glu-(azetidine-1-carboxyl)-(homo-Phe)-OH | >98 | 21
H-Ala-Glu-Ala-Val-Pro-Trp-Lys-Ser-Glu-OH | >98 | –
H-Ala-Val-Pro-Ile-Ala-Gln-Lys-Ser-Glu-OH | >98 | –
H-Ala-Val-Pro-Ile-OH | >98 | 17
H-Ala-Val-Pro-Phe-Ala-Val-Lys-Ser-Glu-OH | >98 | –

For part of these data: One purity is given for all peptides; the source may state it once.
